# Source: patent US20060128613A1 (The Procter & Gamble Company, priority 2003, published 2006)
# Test: peptide synthesis
# Settings: coupling step
row,Substance,step yield
1,Boc-(carba-4-Cl—Ff)-R(Pbf)W—OMe,98%
2,Boc-YfRW—OCH3,95%
